Reference: PubChem BioAssay AID1487 (National Center for Advancing Translational Sciences (NCATS), 2009)
Out of some 200,000 compounds screened, about 25 (0.01%) were called active. The shares of active, inactive and inconclusive entries below differ from those in the screen. Calls follow the shape of the dose curve; as a rule, active = well fitted inhibition curve with a large enough effect in the signal ratio, with a control signal flat (not every such curve was filed as active); inconclusive = small, poorly fitted or top-dose-only effect, or effect the other way, or a change in a side signal; inactive = flat fitted curve, though single readings scatter; the % refers to the signal ratio. A potency beside an inconclusive call is a rough fit, not a confirmed value.

Assay: qHTS Assay for Modulators of Lamin A Splicing
Settings: HeLa LMNA splicing GFP/RFP minigene ratio, 48 h; ratio change, negative = inhibition: at 46.1 µM (top of the series) unless noted
In short: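 Read-out is the ratio of GFP to DsRed2 object intensity, acquired by 488 nm laser-scanning cytometry on HeLa lamin A-EGFP minigene reporter cells. Compound incubation 48 hrs at 37 °C in Opti-MEM with 2% FBS; DMSO 0.5% final.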
% is scaled to controls: 0 for no effect and ±100 for the full control effect; potency is read from the fitted curve at half-maximal effect.

Row | SMILES | ratio change, negative = inhibition | Potency
1 | CCN(CC)S(=O)(=O)c1ccc(NS(=O)(=O)c2ccc(F)cc2)cc1 | inconclusive: 0.201% | 
2 | Clc1ccc(Nc2ncnc3c2cnn3-c2ccccc2)cc1 | inactive: -8.7% | 
3 | C=CCNC(=S)NNc1nc2c(c(=O)[nH]1)C1(CCCC1)Cc1ccccc1-2 | inactive: -8.91% | 
4 | COc1ccc(C(=NNc2ccccc2C(=O)O)c2ccc(OC)cc2)cc1 | inconclusive: -0.115% | 
5 | COc1ccc(-c2nc3cnc(N4CCN(C)CC4)nc3n(CCc3ccccc3)c2=O)cc1 | inactive: 25.2% | 
6 | COc1ccc(CC(=O)NCc2nc(-c3ccccc3)no2)cc1 | inconclusive: 21.9% [at 46 µM] | 
7 | CC(=O)Nc1ccc(NC(=O)CCC(=O)c2ccc(C)cc2)cc1 | inconclusive: 0.203% [at 46 µM] | 
8 | CC(C)C(=O)N1CCN(c2ccc(NC(=O)COc3ccccc3[N+](=O)[O-])cc2)CC1 | inconclusive: 17.7% [at 46 µM] | 
9 | CCCn1c2ccccc2c2cnn(CC(=O)Nc3ccc(C)cc3Br)c(=O)c21 | inconclusive: 31.5% [at 46 µM] | 
10 | Cc1cccc(NC(=O)CSc2nnc(CCCCCNC(=O)OC(C)(C)C)o2)c1C | inconclusive: -5.29% | 
11 | COc1ccc(-c2cc(C(=O)Nc3cccc(S(=O)(=O)NCc4ccco4)c3)c3ccccc3n2)cc1OC | inconclusive: -13% [at 46 µM] | 
12 | COc1ccc(CCNC(=O)c2cc(S(=O)(=O)N3CCCC(C)C3)cn2C)cc1OC (stereo not drawn) | inactive: 13.5% [at 46 µM] | 
13 | CCC(C)CN1CCC(CO)(Cc2ccccc2Cl)CC1 (stereo not drawn) | inconclusive: -4.97% [at 46 µM] | 
14 | CCN(CC)c1ccc(/C=C(/C#N)c2nc3ccccc3[nH]2)c(OC(C)C)c1 | inconclusive: 34.3% | 
15 | CCN1C(=S)SC(=O)C1=C1C=C(C)N(CCO)C(C)=C1 | inactive: -1.42% | 
16 | Cc1nc2ccccc2c(=O)n1/N=C/c1c(O)ccc2ccccc12 | inconclusive: -50.3% [at 46 µM] | 
17 | CCOC(=O)c1ccc(NC(=O)CSc2nc(SC)ns2)cc1 | inconclusive: 1.77% | 
18 | O=C(NC(=S)NCC1COc2ccccc2O1)c1ccccc1 (stereo not drawn) | inactive: -4.21% | 
19 | Cc1cc2nccc(-c3ccccn3)n2n1 | inconclusive: 11.9% [at 9.22 µM] | 
20 | Cc1ccc(-n2c(-c3cccc(C)c3)n[nH]c2=S)cc1 | inactive: -3.42% | 
21 | CN(C)CCCN(C(=O)c1ccco1)c1nc2ccc(Cl)cc2s1 | inconclusive: -31.5% [at 46 µM] | 

Row | SMILES | ratio change, negative = inhibition | Potency
22 | COc1cccc(C(=O)O/N=C2\CCS(=O)(=O)c3sccc32)c1 | inconclusive: 13.2% [at 46 µM] | 
23 | C#CCN1C(=O)C(O)(CC(=O)c2ccc(OC)c(OC)c2)c2ccccc21 (stereo not drawn) | inactive: -15.7% | 
24 | O=C(CSc1ccc(-c2ccc(F)cc2)nn1)NCCc1ccccc1 | inconclusive: 3.45% [at 46 µM] | 
25 | CCOc1cc(S(=O)(=O)Nc2ccc(Cl)cn2)ccc1Cl | inactive: -4.04% | 
26 | Clc1ccc(-c2nc(/C=N/N3CCOCC3)c3ccccn23)cc1 | inactive: -20.3% [at 46 µM] | 
27 | Cc1ccc(OCC(=O)N2CCN(C(=O)c3cccc(F)c3)CC2)cc1 | inconclusive: -1.13% [at 46 µM] | 
28 | COC(=O)CCC(=O)OC1(C)C(=O)C=C2C=C(C3CC3)N(CCCCO)C=C2C1=O (stereo not drawn) | inactive: 5.51% [at 9.22 µM] | 
29 | CCC(=O)Nc1nc2ccccc2n1Cc1ccccc1 |  | inconclusive: 35.5 µM [fluorescent, single point]
30 | Cc1cc(NC(=O)CSc2nc3cc(Cl)ccc3c(=O)n2Cc2ccco2)no1 | inconclusive: 80.5% [at 46 µM] | 
31 | CCOC(=O)c1ccccc1NC(=O)CSc1cc(C)[nH]c(=O)n1 | inconclusive: 5.26% [at 46 µM] | 
32 | COc1ccc(OC)c(Nc2ncc3c(n2)CCN(Cc2cc(OC)c(OC)c(OC)c2)C3)c1 | inactive: -13.9% [at 46 µM] | 
33 | Cc1ccc(CNc2ccc(O)cc2)cc1 | inconclusive: 60.3% | 
34 | Cc1cc(C)c2c(=O)cc(CSc3nnc(-c4ccccc4)n3C)[nH]c2c1 | inactive: -7.75% [at 46 µM] | 
35 | CC(C)(C)NC(=O)CSc1nc2ccccc2n1-c1ccccc1 | inactive: -11.6% | 
36 | Cc1[nH]c(=O)[nH]c(=O)c1S(=O)(=O)N1CCCC(C(=O)N2CCN(c3ccccc3Cl)CC2)C1 (stereo not drawn) | inactive: -0.951% | 
37 | CC(=O)NNC(=O)c1nc(-c2ccccc2)c(C)o1 | inconclusive: 11.1% [at 46 µM] | 
38 | Cc1cccc(OCc2nnc(SCc3nc4cc(C(F)(F)F)ccc4c(=O)[nH]3)o2)c1 | inconclusive: 17.1% | 
39 | O=C(COC(=O)Cn1cnc2ccccc21)NCCCc1ccccc1 | inactive: 4.77% [at 46 µM] | 
40 | Cc1ccc(N2C(=O)/C(=C\c3ccco3)SC2=S)cc1 | inconclusive: 34.2% | 
41 | CC1CCCCN1C(=O)CSc1nnc(-c2ccco2)n1CC1CCCO1 (stereo not drawn) | inactive: 7.43% | 
42 | CN1CCN(c2ccc(S(=O)(=O)N3CCCCC3)cc2NC(=O)c2ccc3ccccc3c2)CC1 | inactive: -15.1% | 

Row | SMILES | ratio change, negative = inhibition | Potency
43 | CS(=O)(=O)NCCCCNc1ccc(C(F)(F)F)cc1[N+](=O)[O-] | inconclusive: -4.61% [at 46 µM] | 
44 | CCOC(=O)c1c(C)oc2c1c(C(c1ccncc1)N1CCOCC1)c(O)c1ccccc12 (stereo not drawn) | inconclusive: -33.8% | 
45 | CCOC(=O)CSc1nnc(-c2ccoc2C)n1-c1ccc(C)cc1 | inactive: -4.21% | 
46 | Cc1c(NC(=O)c2cc(-c3cccs3)on2)c(=O)n(-c2ccccc2)n1C | inconclusive: -3.48% | 
47 | CCOCCCNC(=O)Cn1cnc2sc(C)c(S(=O)(=O)N3CCN(c4ncccn4)CC3)c2c1=O | inconclusive: 8.36% [at 9.22 µM] | 
48 | CCCCOC(=O)c1ccc(O)cc1 | inconclusive: -12.9% | 
49 | Cc1csc2ncnc(N3CCN(C(=S)Nc4ccc(C(F)(F)F)cc4)CC3)c12 | inconclusive: -19.7% [at 46 µM] | 
50 | CCn1c(SCc2ccc(F)cc2Cl)nc(=O)c2c(C(=O)OC)cc(C3CC3)nc21 | inconclusive: 32.3% [at 46 µM] | 
51 | CCOC(=O)C(=CNc1ccc2c(c1)nnn2-c1ccc(Cl)cc1)C(=O)OCC | inconclusive: -0.26% | 
52 | Cc1ccc(-c2cn3c(n2)sc2cc(C(=O)NCc4cccs4)ccc23)c(C)c1 | inconclusive: 18.8% [at 46 µM] | 
53 | CCCOc1c(Br)cc(C2C3=C(CCCC3=O)N(C)C3=C2C(=O)CCC3)cc1OC | inactive: 1.01% | 
54 | COc1ccc(-c2cc(C)nc3c(-c4ccccc4)cnn23)cc1 | inconclusive: -13.7% [at 46 µM] | 
55 | CC(=O)c1cccc(NC(=O)N2C3CCC2CC(NC(=O)C2CC2)C3)c1 (stereo not drawn) | inconclusive: 19.9% [at 46 µM] | 
56 | CC(=O)Nc1ccc(S(=O)(=O)Nc2cc([N+](=O)[O-])ccc2C)cc1 | inactive: -9.81% [at 46 µM] | 
57 | CCOC(=O)C1CCCN(Cc2ccccc2F)C1 (stereo not drawn) | inactive: 3.72% | 
58 | O=c1c2ccccc2c(-c2ccc(Cl)cc2)nn1-c1ccccc1 | inactive: 2.9% | 
59 | Cc1ccc(NCCC(=O)c2cccs2)cc1 | inconclusive: -35.8% [at 46 µM] | 
60 | Clc1ccc(CNc2ccc(CNc3ncn[nH]3)cc2)cc1 |  | inconclusive: 35.5 µM [fluorescent, single point]
61 | O=C(COc1cccc(Br)c1)N/N=C/C(=O)c1ccccc1 | inactive: 23.2% [at 46 µM] | 
62 | COc1ccc(NS(=O)(=O)c2ccc(NC(=S)NC(=O)C(C)C)cc2)cc1 | inconclusive: 5.86% | 
63 | COc1ccc(Cl)cc1C(=O)Nc1c2c(nn1-c1ccc(Cl)cc1)CS(=O)(=O)C2 | inconclusive: -26.3% [at 46 µM] | 

Filtered by structure, the compounds so far with an aryl thioether with sulfur outside any ring (11)
Row | SMILES | ratio change, negative = inhibition | Potency
10 | Cc1cccc(NC(=O)CSc2nnc(CCCCCNC(=O)OC(C)(C)C)o2)c1C | inconclusive: -5.29% | 
17 | CCOC(=O)c1ccc(NC(=O)CSc2nc(SC)ns2)cc1 | inconclusive: 1.77% | 
24 | O=C(CSc1ccc(-c2ccc(F)cc2)nn1)NCCc1ccccc1 | inconclusive: 3.45% [at 46 µM] | 
30 | Cc1cc(NC(=O)CSc2nc3cc(Cl)ccc3c(=O)n2Cc2ccco2)no1 | inconclusive: 80.5% [at 46 µM] | 
31 | CCOC(=O)c1ccccc1NC(=O)CSc1cc(C)[nH]c(=O)n1 | inconclusive: 5.26% [at 46 µM] | 
34 | Cc1cc(C)c2c(=O)cc(CSc3nnc(-c4ccccc4)n3C)[nH]c2c1 | inactive: -7.75% [at 46 µM] | 
35 | CC(C)(C)NC(=O)CSc1nc2ccccc2n1-c1ccccc1 | inactive: -11.6% | 
38 | Cc1cccc(OCc2nnc(SCc3nc4cc(C(F)(F)F)ccc4c(=O)[nH]3)o2)c1 | inconclusive: 17.1% | 
41 | CC1CCCCN1C(=O)CSc1nnc(-c2ccco2)n1CC1CCCO1 (stereo not drawn) | inactive: 7.43% | 
45 | CCOC(=O)CSc1nnc(-c2ccoc2C)n1-c1ccc(C)cc1 | inactive: -4.21% | 
50 | CCn1c(SCc2ccc(F)cc2Cl)nc(=O)c2c(C(=O)OC)cc(C3CC3)nc21 | inconclusive: 32.3% [at 46 µM] | 

Next part

Row | SMILES | ratio change, negative = inhibition | Potency
64 | Cc1ccc(S(=O)(=O)N2c3ccccc3OCC2c2ccccc2)cc1 (stereo not drawn) |  | inconclusive: 11.2 µM [falling, partial curve, poor fit]
65 | COc1cc(OC)c(NC(=O)NCc2cccn2Cc2ccccc2)cc1Cl | inactive: 12.9% [at 46 µM] | 
66 | O=C1COC(c2ccccc2)C2CCCCN12 (stereo not drawn) | inconclusive: -18.7% | 
67 | CC(C)(C)C(=O)Nc1ccc(C(=O)N/N=C/c2ccccc2OC(=O)c2ccccc2)cc1 | inconclusive: -28.5% | 
68 | Cc1ccc2cc(CN(CCN(C)C)C(=S)Nc3ccccc3)c(=O)[nH]c2c1C |  | inconclusive: 14.1 µM [inhibitor, single point]
69 | CC1=CC(=O)c2ccccc2C1=O | inconclusive: -14.8% | inconclusive: 11.2 µM [cytotoxic, single point]
70 | CCCOc1ccc(Cc2c(Cl)nc(SC)nc2NC)cc1 |  | inconclusive: 3.98 µM [falling, partial curve, poor fit]
71 | O=S(=O)(Nc1ccc(-c2ccc(N3CCCC3)nn2)cc1)c1ccc(OC(F)(F)F)cc1 | inconclusive: -7.4% [at 46 µM] | 
72 | Cc1ccccc1C(=O)Nc1sc2c(c1C(=O)O)CCC2 | inconclusive: -10.9% [at 46 µM] | 
73 | O=C(Nc1nncs1)c1cc2c(s1)CCC2 | inconclusive: -36.6% [at 46 µM] | 
74 | O=C(CC12CC3CC(CC(C3)C1)C2)NCO | inconclusive: 4.02% | 
75 | O=C1/C(=C/c2ccc(N3CCOCC3)o2)SC(=Nc2ccccc2)N1CCc1c[nH]c2ccccc12 |  | inconclusive: 3.98 µM [cytotoxic, full curve]
76 | Cc1ccc(-c2cc(C(F)F)nc(S(C)(=O)=O)n2)cc1 |  | inconclusive: 35.5 µM [cytotoxic, single point]
77 | CN(C)/C=C/C(=O)c1ccc(Cl)cc1 | inactive: -8.04% | 
78 | Cc1cccc(NCCC#N)c1 | inactive: -9.17% | 
79 | CCCCCCCC(=O)N/N=C(\C)c1ccc(O)cc1O |  | inconclusive: 35.5 µM [fluorescent, single point]
80 | CCOC(=O)N1CCN(C(=S)Nc2cc(S(=O)(=O)N3CCOCC3)ccc2Cl)CC1 | inconclusive: -30.4% [at 46 µM] | 
81 | COc1ccc(CNc2ccnc(-c3cccnc3)n2)c(OC)c1 |  | inconclusive: 10 µM [inhibitor, partial curve]
82 | CCc1ccc(S(=O)(=O)NCCc2csc(-c3cccnc3)n2)s1 |  | inconclusive: 35.5 µM [falling, single point]

Laid out differently: entries from further up
Row	SMILES	ratio change, negative = inhibition	Potency
63	COc1ccc(Cl)cc1C(=O)Nc1c2c(nn1-c1ccc(Cl)cc1)CS(=O)(=O)C2	inconclusive: -26.3% [at 46 µM]	
64	Cc1ccc(S(=O)(=O)N2c3ccccc3OCC2c2ccccc2)cc1 (stereo not drawn)		inconclusive: 11.2 µM [falling, partial curve, poor fit]
